Source: patent US20220153832A1
Results are given in words; binding and its absence hold for the method and conditions named. Some binding calls cover weakened binding; strength is not graded here.

Amino acid sequences for entries named in this document (tags omitted). A change or cut given only in a name is not applied to a line headed by its entry.
UniProt Q9UEW3: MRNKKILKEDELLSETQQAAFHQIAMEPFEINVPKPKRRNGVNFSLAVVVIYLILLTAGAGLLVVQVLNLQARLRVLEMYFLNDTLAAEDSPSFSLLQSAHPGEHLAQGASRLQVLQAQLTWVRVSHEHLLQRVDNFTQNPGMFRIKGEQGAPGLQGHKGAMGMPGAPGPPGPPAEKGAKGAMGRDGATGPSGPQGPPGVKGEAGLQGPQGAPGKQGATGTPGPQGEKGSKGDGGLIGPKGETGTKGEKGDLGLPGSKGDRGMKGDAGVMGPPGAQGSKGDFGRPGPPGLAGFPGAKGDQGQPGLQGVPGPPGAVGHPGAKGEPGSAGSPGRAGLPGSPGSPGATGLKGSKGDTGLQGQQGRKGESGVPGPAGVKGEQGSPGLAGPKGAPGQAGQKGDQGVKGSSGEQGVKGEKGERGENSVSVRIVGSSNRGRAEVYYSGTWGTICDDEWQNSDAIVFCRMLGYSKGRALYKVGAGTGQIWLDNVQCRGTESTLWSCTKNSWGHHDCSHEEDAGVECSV

Columns and labels:
[1] = molecular target: N-terminally polyhistidine tagged human MARCO ECD (147-520), recombinant (human) (UniProt Q9UEW3); test: calcium dependency ELISA, with and without 2 mM EDTA
[2] = molecular target: N-terminally polyhistidine tagged human MARCO ECD (147-520), recombinant (human) (UniProt Q9UEW3); test: ELISA on hMARCO ECD with 2 mM Ca2+, A450-A620
[3] = molecular target: N-terminally polyhistidine tagged human MARCO ECD (147-520), recombinant (human) (UniProt Q9UEW3); test: ELISA on hMARCO ECD with 2 mM EDTA, A450-A620

Measured: binding

B1: PI-3032-AB (antibody, human IgG1, kappa, V domains shown)
VH: EVQLVESGGGLVQPGGSLRLSCAASKFTFSNYGMNWIRQAPGKGLEWIALIYYNSNNKYYADSVKGRFTISRDNSKNTLYLQMNSLRAEDTAVYYCAKSLTGGSDYFDSWGQGTLVTVSS
VL: DIQMTQSPSSLSASVGDRVTITCRASKSIGTFLAWYQQKPGKAPKLLIYSGSTLESGVPSRFSGSGSGTDFTLTISSLQPEDFATYYCQQHDEYPFTFGQGTKLEIKR
binds: all assays above
